Assay results published in PubChem BioAssay AID493014 (National Center for Advancing Translational Sciences (NCATS), 2011).
The other results are listed elsewhere or left out. Further columns of the screen follow, without active or inactive calls. Most of these compounds were active or inconclusive in the main read-out, so they are no random draw. Potencies come from curve fits of mixed quality, noted in brackets.

Test: qHTS Assay to Find Inhibitors of Chronic Active B-Cell Receptor Signaling
Details: ABC-DLBCL IkBa-CBG/CBR reporter, luminescence ratio (green luciferase fused to IkBa over red control in TMD8 lymphoma cells), 4 h
In short: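 Concentration-response series (up to 46 uM) were applied to TMD8 dual-reporter cells for 4 h at 37C with doxycycline. Green/red ratio, after filter-overlap correction, defined %Activity; red signal alone was normalised to basal cells and zero luminescence.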

[1] = measured here: CBR red luminescence, cell number
[2] = measured here: IkBa-CBG green luminescence

Q: Which AC50 [1] does the source give for `O=C(O)c1cccc(C(=O)Cc2ccccc2)c1` here?
A: 5.62 µM [rising, single point]

Q: For `C/C(=N\NC(=O)c1cc(C(C)(C)C)[nH]n1)C12CC3CC(CC(C3)C1)C2`, which AC50 [1] is on record?
A: 3.98 µM [rising, single point]

Q: For `COCCNC(=O)c1onc(CSc2cccc(Cl)c2)c1C(=O)O`, which AC50 [1] is on record?
A: 35.5 µM [falling, single point]

Q: Which AC50 [1] does the source give for `COc1cc(OC)cc(C(=O)NC(=S)Nc2nnn(C)n2)c1` here?
A: 15.8 µM [falling, single point]

Q: With `COc1ccc(C/C(N)=N/OC(=O)c2ccc(Cl)cc2)cc1` as the compound, how does the AC50 [1] read?
A: 17.8 µM [rising, partial curve, poor fit]

Q: With `NC(=O)c1ccccc1NC(=O)/C=C/c1cccc(Cl)c1` as the compound, how does the AC50 [1] read?
A: 14.1 µM [falling, single point]

Q: For `O=C(CSc1nnc(-c2n[nH]c3ccccc23)n1-c1ccccc1)Nc1ccccc1Cl`, which AC50 [1] is on record?
A: 23.1 µM [falling, single point]

Q: Which AC50 [1] does the source give for `Cc1c2cnn(CC(=O)Nc3c(F)c(F)cc(F)c3F)c(=O)c2c(C)n1Cc1ccccc1F` here?
A: 5.62 µM [rising, partial curve, poor fit]

Q: Which AC50 [1] does the source give for `Cc1cc(C)n(-c2nnc(C)n2/N=C/c2cc(Br)ccc2OCc2ccccc2)n1` here?
A: 31.6 µM [falling, single point]

Q: With `Cc1cc(/C=C(\C#N)C(=O)O)c(C)n1CC1CCCO1` (stereo unspecified) as the compound, how does the AC50 [1] read?
A: 3.98 µM [rising, full curve, poor fit]

Q: With `CCOC(=O)NC(=O)/C(C#N)=N/Nc1ccc(F)cc1` as the compound, how does the AC50 [1] read?
A: 29.1 µM [falling, single point]

Q: With `O=C(CCc1ccccc1)Nc1ccc(S(=O)(=O)N2CCOCC2)cc1` as the compound, how does the AC50 [1] read?
A: 31.6 µM [rising, single point]

Q: With `CSc1ncccc1C(=O)OCC(=O)N1CCN(C(=O)c2ccco2)CC1` as the compound, how does the AC50 [1] read?
A: 20.6 µM [rising, single point]

Q: For `COC(=O)c1cc(-c2ccccc2)sc1NC(=O)c1cc(C)on1`, which AC50 [1] is on record?
A: 0.58 µM [rising, full curve]

Q: Which AC50 [1] does the source give for `CN(Cc1ccccc1)C(=O)CSc1n[nH]c(N)n1` here?
A: 0.447 µM [rising, full curve, poor fit]

Q: Which AC50 [1] does the source give for `CCOC(=O)c1sc(=NC(=O)c2ccc(Cl)s2)n(C)c1C` here?
A: 0.891 µM [falling, full curve]

Q: With `COc1ccccc1N1CCN(C(=O)c2ccc(Br)s2)CC1` as the compound, how does the AC50 [1] read?
A: 6.31 µM [rising, partial curve, poor fit]

Q: Which AC50 [1] does the source give for `Cc1[nH]n(-c2ccccc2)c(=O)c1C=Nc1ccc(S(=O)(=O)NC(N)=O)cc1` here?
A: 0.282 µM [rising, full curve, poor fit]

Q: For `O=S(=O)(Cc1ccccc1Cl)N1CCCCC1`, which AC50 [1] is on record?
A: 0.631 µM [rising, full curve, poor fit]

Q: For `Cc1cc(C)n(CCN(C)Cc2cn[nH]c2-c2ccc(F)cc2F)n1`, which AC50 [1] is on record?
A: 4.47 µM [rising, full curve, poor fit]

Q: For `O=C(Nc1ccc(C(F)(F)F)cc1)C1CCCN1S(=O)(=O)c1cccc2cccnc12` (stereo unspecified), which AC50 [1] is on record?
A: 3.55 µM [rising, partial curve, poor fit]

Q: Which AC50 [1] does the source give for `COc1ccc(-c2sc(Nc3ccccc3)n[n+]2-c2ccccc2)cc1Br` here?
A: 23.1 µM [falling, single point]

Q: With `CCN1CCN(C(=O)c2ccc3c(c2)N(Cc2cccc(Cl)c2)C(=O)c2ccccc2S3(=O)=O)CC1` as the compound, how does the AC50 [1] read?
A: 35.5 µM [falling, partial curve, poor fit]

Q: Which AC50 [1] does the source give for `C/C(CC(=O)Nc1ccc2ccccc2c1)=N\NC(=O)c1cnccn1` here?
A: 29.1 µM [falling, single point]

Q: With `CNC(=S)N1CCN(c2c(F)cc3c(=O)c(C(=O)O)cn(C4CC4)c3c2OC)CC1C` (stereo unspecified) as the compound, how does the AC50 [1] read?
A: 0.116 µM [falling, full curve, poor fit]

Q: For `Cc1ccc(NS(=O)(=O)c2ccc(NC(=O)C3CCCO3)cc2)cc1` (stereo unspecified), which AC50 [1] is on record?
A: 5.17 µM [rising, full curve, poor fit]

Q: With `COC(=O)/C(=C\c1cc(OC)c(OC)c(OC)c1)c1nc2ccccc2[nH]1` as the compound, how does the AC50 [1] read?
A: 7.08 µM [falling, partial curve]

Q: Which AC50 [1] does the source give for `Clc1ccc(-c2nc3ccncc3[nH]2)cc1` here?
A: 16.4 µM [falling, partial curve, poor fit]

Q: For `c1ccc(CNc2nc(NCc3ccccc3)c3ccccc3n2)cc1`, which AC50 [1] is on record?
A: 35.5 µM [falling, single point]

Q: Which AC50 [1] does the source give for `CCOC(=O)c1c(N)sc(C(=O)Nc2ccc3c(c2)OCO3)c1C` here?
A: 2.59 µM [falling, partial curve, poor fit]

Q: Which AC50 [1] does the source give for `Cc1cccc(NC(=O)C2CCN(C(=O)[C@@H]3Cc4ccccc4CN3)CC2)c1` here?
A: 12.6 µM [falling, single point]

Q: With `C/C(=N\OCC(=O)Nc1ccccc1C(=O)O)c1cccs1` as the compound, how does the AC50 [1] read?
A: 6.31 µM [falling, partial curve]

Q: Which AC50 [1] does the source give for `COc1ccc(C(=O)Nc2cccc(/C=C/c3nc4ccccc4c(=O)[nH]3)c2)cc1` here?
A: 3.98 µM [falling, full curve]

Q: For `CCOC(=O)c1sc(NC(=O)C(CC)OC(=O)c2ccco2)nc1C` (stereo unspecified), which AC50 [1] is on record?
A: 10 µM [falling, partial curve]

Q: With `O=C(c1cc2ccccc2o1)N(Cc1nnc(-c2ccccc2Cl)o1)C1CC1` as the compound, how does the AC50 [1] read?
A: 5.8 µM [rising, full curve]

Q: For `Cc1[nH]c2ccccc2c1C(O)CN1CCC2(CC1)OCCO2` (stereo unspecified), which AC50 [1] is on record?
A: 35.5 µM [falling, single point]

Q: For `CCOC(=O)C1=C(COC(=O)c2ccc([N+](=O)[O-])o2)NC(=O)NC1C` (stereo unspecified), which AC50 [1] is on record?
A: 29.1 µM [rising, single point]

Q: For `CCN(CC)S(=O)(=O)c1ccccc1/C=N\O`, which AC50 [1] is on record?
A: 6.51 µM [falling, single point]

Q: Which AC50 [1] does the source give for `O=C(Nc1nsc(-c2ccccc2)n1)c1ccc(F)cc1` here?
A: 3.98 µM [falling, full curve]

Q: For `N#Cc1c(NC(=O)/C=C/c2ccco2)sc2c1CCCC2`, which AC50 [1] is on record?
A: 0.92 µM [rising, full curve]

Q: And the AC50 [2]?
A: 1.03 µM [falling, full curve]

Q: For `Cc1cc(OCCN2CCOCC2)nc2ccccc12`, which AC50 [1] is on record?
A: 0.447 µM [rising, partial curve, poor fit]

Q: For `Cc1ccccc1C(=O)Oc1ccc(Sc2ccc(O)cc2)cc1`, which AC50 [1] is on record?
A: 31.6 µM [rising, single point]

Q: For `Cc1noc(C)c1CSc1nnnn1-c1ccc(Cl)cc1`, which AC50 [1] is on record?
A: 12.6 µM [rising, partial curve]

Q: Which AC50 [1] does the source give for `CCn1cc(CN2CCC(C(=O)Nc3cccc(-c4cccc(Cl)c4)c3)CC2)c(C)n1` here?
A: 35.5 µM [falling, single point]

Q: Which AC50 [1] does the source give for `COc1cccc(-c2cc(-c3cccnc3)c(C#N)c(N)n2)c1` here?
A: 15.8 µM [falling, partial curve, poor fit]

Q: With `COC(=O)[C@H](C)NC(=O)c1cc2c(cn1)[nH]c1ccccc12` as the compound, how does the AC50 [1] read?
A: 25.1 µM [falling, single point]

Q: For `O=C(NC1CCCCC1)c1cc(C2CC2)nn1-c1ccccc1`, which AC50 [1] is on record?
A: 20.6 µM [rising, partial curve, poor fit]

Q: For `CCC1(c2ccc(C)cc2)NC(=O)N(CC(=O)Nc2cccc(S(=O)(=O)N3CCCC3)c2)C1=O` (stereo unspecified), which AC50 [1] is on record?
A: 29.1 µM [rising, single point]

Q: For `CC(=O)Nc1ccc(NC(=O)Nc2ccc(C)cc2C)cc1`, which AC50 [1] is on record?
A: 11.2 µM [rising, single point]

Q: For `Cc1ccc(-c2nc3ccc(Cl)cc3c(=O)n2O)cc1`, which AC50 [1] is on record?
A: 7.94 µM [falling, partial curve, poor fit]

Q: With `Cn1c(=O)[nH]c(=O)c2c1nc(N1CCOCC1)n2CCN1CCOCC1` as the compound, how does the AC50 [1] read?
A: 6.31 µM [falling, single point]

Q: Which AC50 [1] does the source give for `CN(/N=C/c1ccncc1)C1=NCCN1` here?
A: 10 µM [falling, partial curve, poor fit]

Q: Which AC50 [1] does the source give for `NC(=O)C1CC=CCC1C(=O)OCC(Cl)=C(Cl)Cl` (stereo unspecified) here?
A: 35.5 µM [falling, partial curve, poor fit]

Q: Which AC50 [1] does the source give for `Fc1ccccc1-c1nc(NCc2ccccc2)c2ccccc2n1` here?
A: 10 µM [falling, partial curve, poor fit]

Q: Which AC50 [1] does the source give for `O=C(NC(Cc1ccccc1)c1nc2ccccc2[nH]1)C1CC(=O)N(c2ccc3c(c2)OCCO3)C1` (stereo unspecified) here?
A: 20 µM [falling, partial curve, poor fit]

Q: For `O=C(c1ccccc1)N1CCC(c2nc(-c3ccc(S(=O)(=O)N4CCOCC4)cc3)no2)CC1`, which AC50 [1] is on record?
A: 22.4 µM [falling, single point]

Q: With `CC(=O)Nc1nc(CCN2C(=O)c3ccccc3C2=O)cs1` as the compound, how does the AC50 [1] read?
A: 0.562 µM [rising, full curve, poor fit]

Q: Which AC50 [1] does the source give for `CC(C)C(=O)Nc1nnc(CCc2ccccc2)s1` here?
A: 1.78 µM [rising, partial curve, poor fit]

Q: Which AC50 [1] does the source give for `Cc1ccc(NC(=S)N/C(=N/S(=O)(=O)c2ccccc2)c2ccccc2)cc1` here?
A: 29.1 µM [falling, single point]

Q: With `COc1ccc(-c2ccc(OC)c([C@H]3[C@H]4C=CC[C@@H](C)[C@@H]4C(=O)N3Cc3ccccc3)c2)cc1C` as the compound, how does the AC50 [1] read?
A: 1 µM [rising, full curve, poor fit]

Q: With `COC(=O)c1ccc2c(=O)n(CCCCCC(=O)NCc3ccccn3)c(=O)[nH]c2c1` as the compound, how does the AC50 [1] read?
A: 0.82 µM [falling, full curve, poor fit]

Q: And the AC50 [2]?
A: 0.259 µM [rising, full curve]

Q: Which AC50 [1] does the source give for `O=C1NCCNC1(c1c[nH]c2ccccc12)C(F)(F)F` (stereo unspecified) here?
A: 29.1 µM [rising, single point]

Q: With `COc1ccc(N2CCN(C(=O)Cc3cccs3)CC2)cc1` as the compound, how does the AC50 [1] read?
A: 14.6 µM [rising, partial curve]

Q: With `O=C(Nc1nnc(C2CC2)s1)c1cc(-c2ccccc2)nn1-c1ccccc1` as the compound, how does the AC50 [1] read?
A: 14.1 µM [falling, partial curve, poor fit]
